This note sets out measurements from article PMC3084824.

Amino acid sequences for entries named in this document (tags omitted). Residues count along the entry.
UniProt Q15109, residues 23-404: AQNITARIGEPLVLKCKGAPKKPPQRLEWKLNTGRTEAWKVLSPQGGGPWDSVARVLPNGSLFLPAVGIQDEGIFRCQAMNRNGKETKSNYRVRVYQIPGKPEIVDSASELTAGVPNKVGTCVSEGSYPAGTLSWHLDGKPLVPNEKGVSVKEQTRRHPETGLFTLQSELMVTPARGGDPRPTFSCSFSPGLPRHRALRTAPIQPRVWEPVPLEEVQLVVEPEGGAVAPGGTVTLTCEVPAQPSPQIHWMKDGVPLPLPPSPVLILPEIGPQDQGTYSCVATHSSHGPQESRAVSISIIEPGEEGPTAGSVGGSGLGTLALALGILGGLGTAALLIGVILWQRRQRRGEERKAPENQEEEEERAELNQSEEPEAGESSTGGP

These are yes or no findings as the source states them, for the method shown. Binding seen in cells or lysates may run through a third protein. Some binding calls cover weakened binding; strength is not graded here. For some assays here: Tags and fused reporters may be left off the sequences shown.

In experiment [1] the target is T1, S100A14 (endogenous, KYSE180 cells) (human (endogenous in KYSE180)) (UniProt Q9HCY8).
T1 sequence: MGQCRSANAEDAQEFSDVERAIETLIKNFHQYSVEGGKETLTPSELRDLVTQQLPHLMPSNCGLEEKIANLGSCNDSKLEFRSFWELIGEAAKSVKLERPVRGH
Kind of experiment: co-IP; KYSE180 cell lysates immunoprecipitated with anti-S100A14 polyclonal antibodies at 4°C overnight; RAGE detected by Western blotting. In general terms: A western blot detects proteins with antibodies after separation by electrophoresis.

The target of experiment [2] is T2, human recombinant S100A14 protein (histidine-tagged fusion protein) (human) (UniProt Q9HCY8).
T2 sequence: T1 sequence
Kind of experiment: pull-down; purified His-tagged S100A14 (10 µg) on His-resin beads, 4°C 1 h, then KYSE180 cell lysates overnight at 4°C; eluted with 2×SDS sample buffer; blot with a RAGE polyclonal antibody; only the target purified.

As to “receptor for advanced glycation end products (RAGE) (from UniProt Q15109 23-404)”, the binding result in experiment [1] and in experiment [2] was “binds” in each case.
